# The other results are listed elsewhere or left out.
# Amino acid sequences for entries named in this document (tags omitted). A change or cut given only in a name is not applied to a line headed by its entry.
# UniProt Q9Y6I3: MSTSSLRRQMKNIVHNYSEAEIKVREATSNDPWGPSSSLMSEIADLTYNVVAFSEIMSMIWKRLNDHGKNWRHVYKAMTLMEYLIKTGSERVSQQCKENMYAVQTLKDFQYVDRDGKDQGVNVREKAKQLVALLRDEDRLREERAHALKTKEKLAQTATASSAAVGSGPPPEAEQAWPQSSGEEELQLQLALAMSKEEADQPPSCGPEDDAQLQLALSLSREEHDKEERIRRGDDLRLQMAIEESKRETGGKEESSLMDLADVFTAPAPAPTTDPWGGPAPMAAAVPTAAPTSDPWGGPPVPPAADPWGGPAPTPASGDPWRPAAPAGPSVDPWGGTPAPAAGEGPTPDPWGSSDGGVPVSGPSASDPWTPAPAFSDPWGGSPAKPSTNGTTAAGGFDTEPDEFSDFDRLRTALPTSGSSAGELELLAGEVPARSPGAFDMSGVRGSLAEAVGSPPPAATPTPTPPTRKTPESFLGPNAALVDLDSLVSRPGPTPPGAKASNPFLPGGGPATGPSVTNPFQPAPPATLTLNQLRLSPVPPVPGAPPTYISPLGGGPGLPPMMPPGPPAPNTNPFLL
# UniProt Q9HCE0: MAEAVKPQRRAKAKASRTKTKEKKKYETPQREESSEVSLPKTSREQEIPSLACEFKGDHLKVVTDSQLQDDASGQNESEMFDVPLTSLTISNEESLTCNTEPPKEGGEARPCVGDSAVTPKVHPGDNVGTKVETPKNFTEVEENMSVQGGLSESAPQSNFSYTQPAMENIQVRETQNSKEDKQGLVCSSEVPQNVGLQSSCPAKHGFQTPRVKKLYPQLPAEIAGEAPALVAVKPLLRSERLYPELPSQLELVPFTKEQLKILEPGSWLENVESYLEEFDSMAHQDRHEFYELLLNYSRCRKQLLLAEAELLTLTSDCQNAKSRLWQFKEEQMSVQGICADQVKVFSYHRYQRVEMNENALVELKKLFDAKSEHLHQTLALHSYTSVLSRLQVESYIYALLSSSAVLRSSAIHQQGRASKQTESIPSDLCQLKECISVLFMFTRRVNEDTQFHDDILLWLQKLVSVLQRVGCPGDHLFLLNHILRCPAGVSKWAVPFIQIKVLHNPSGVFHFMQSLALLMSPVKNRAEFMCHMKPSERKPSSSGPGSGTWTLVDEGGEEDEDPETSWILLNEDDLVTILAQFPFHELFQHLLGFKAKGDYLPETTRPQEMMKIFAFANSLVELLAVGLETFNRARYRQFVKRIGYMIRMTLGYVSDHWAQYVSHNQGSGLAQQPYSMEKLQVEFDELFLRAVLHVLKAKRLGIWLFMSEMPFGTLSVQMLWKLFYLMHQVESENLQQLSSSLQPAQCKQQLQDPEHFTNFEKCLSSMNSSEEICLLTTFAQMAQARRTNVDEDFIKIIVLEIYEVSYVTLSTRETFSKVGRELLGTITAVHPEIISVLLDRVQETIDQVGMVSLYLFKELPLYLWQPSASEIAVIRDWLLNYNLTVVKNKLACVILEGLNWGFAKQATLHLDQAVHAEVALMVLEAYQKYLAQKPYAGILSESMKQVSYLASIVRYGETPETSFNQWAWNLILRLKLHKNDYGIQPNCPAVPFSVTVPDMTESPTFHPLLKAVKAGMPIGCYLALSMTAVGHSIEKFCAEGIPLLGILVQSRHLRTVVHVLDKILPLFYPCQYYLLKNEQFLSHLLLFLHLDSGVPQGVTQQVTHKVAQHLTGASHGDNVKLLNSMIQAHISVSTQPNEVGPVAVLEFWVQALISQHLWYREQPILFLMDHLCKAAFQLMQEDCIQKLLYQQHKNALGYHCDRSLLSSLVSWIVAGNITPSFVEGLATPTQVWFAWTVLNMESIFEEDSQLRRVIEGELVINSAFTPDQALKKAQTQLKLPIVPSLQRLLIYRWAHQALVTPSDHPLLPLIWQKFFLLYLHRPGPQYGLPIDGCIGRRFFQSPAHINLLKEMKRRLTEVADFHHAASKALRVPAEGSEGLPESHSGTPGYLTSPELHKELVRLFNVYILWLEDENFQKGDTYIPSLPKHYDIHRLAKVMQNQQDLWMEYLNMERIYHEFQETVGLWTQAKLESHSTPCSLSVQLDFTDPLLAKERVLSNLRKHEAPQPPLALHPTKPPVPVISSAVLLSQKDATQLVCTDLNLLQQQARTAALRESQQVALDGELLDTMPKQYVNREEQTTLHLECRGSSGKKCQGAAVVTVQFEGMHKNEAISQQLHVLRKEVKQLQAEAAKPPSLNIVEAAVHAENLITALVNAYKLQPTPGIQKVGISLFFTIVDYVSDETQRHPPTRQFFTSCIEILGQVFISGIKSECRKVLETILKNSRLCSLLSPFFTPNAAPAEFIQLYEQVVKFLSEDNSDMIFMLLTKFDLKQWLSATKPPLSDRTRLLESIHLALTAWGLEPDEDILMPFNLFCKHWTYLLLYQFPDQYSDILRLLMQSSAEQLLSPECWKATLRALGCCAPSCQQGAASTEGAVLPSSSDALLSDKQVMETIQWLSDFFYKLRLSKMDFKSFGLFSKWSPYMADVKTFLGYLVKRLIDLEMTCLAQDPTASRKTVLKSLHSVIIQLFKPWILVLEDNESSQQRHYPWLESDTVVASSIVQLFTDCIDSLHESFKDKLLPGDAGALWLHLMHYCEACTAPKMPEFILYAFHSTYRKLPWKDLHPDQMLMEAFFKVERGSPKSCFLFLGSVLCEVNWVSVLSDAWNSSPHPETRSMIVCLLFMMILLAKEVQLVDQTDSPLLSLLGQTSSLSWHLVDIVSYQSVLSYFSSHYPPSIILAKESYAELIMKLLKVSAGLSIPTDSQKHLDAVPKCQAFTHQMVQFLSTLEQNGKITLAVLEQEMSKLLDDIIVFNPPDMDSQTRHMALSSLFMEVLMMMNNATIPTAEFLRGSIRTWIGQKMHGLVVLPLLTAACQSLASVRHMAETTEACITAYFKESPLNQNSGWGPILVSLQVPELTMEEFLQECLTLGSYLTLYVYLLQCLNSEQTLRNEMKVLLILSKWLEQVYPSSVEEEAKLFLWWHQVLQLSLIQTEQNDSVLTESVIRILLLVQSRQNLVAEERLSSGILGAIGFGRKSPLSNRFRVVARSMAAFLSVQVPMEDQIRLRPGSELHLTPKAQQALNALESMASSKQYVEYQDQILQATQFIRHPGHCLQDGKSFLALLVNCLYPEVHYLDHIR
# UniProt P11171, whole entry, looked up: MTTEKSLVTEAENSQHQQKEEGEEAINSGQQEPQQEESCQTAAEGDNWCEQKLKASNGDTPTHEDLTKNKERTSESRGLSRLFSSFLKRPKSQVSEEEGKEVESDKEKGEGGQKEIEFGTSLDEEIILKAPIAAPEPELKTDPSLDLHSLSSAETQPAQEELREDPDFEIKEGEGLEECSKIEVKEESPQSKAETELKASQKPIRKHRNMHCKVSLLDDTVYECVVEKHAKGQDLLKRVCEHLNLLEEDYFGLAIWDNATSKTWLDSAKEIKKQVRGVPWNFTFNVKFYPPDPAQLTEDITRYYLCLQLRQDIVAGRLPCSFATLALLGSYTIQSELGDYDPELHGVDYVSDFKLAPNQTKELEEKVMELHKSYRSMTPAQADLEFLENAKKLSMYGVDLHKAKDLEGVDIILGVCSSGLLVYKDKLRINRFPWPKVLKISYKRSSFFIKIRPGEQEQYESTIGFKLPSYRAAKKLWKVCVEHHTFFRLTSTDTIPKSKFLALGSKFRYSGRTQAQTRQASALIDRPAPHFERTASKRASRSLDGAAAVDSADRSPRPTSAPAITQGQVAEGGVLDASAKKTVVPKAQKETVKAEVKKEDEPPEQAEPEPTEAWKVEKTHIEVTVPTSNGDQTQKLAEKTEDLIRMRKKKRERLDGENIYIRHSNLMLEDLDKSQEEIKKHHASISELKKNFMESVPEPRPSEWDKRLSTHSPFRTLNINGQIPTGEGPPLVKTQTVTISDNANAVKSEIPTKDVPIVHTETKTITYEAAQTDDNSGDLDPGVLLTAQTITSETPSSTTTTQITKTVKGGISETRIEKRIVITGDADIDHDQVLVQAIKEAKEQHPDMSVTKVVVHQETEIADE
# UniProt Q9NR50: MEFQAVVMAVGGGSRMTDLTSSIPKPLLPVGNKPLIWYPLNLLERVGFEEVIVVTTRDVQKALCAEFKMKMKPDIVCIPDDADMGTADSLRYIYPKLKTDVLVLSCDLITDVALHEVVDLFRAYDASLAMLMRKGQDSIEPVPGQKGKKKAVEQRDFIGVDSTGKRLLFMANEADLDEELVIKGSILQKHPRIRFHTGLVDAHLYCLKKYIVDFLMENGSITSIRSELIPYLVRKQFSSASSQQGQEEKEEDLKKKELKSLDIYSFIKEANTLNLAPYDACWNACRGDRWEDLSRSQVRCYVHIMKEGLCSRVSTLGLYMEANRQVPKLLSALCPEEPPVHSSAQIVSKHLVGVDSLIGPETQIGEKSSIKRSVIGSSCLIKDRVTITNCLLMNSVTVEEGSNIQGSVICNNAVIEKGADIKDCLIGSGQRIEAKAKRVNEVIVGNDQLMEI
# UniProt Q9NPA8: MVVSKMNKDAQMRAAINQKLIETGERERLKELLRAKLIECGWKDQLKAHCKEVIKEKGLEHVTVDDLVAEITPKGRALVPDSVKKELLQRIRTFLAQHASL
# UniProt Q7L5Y1: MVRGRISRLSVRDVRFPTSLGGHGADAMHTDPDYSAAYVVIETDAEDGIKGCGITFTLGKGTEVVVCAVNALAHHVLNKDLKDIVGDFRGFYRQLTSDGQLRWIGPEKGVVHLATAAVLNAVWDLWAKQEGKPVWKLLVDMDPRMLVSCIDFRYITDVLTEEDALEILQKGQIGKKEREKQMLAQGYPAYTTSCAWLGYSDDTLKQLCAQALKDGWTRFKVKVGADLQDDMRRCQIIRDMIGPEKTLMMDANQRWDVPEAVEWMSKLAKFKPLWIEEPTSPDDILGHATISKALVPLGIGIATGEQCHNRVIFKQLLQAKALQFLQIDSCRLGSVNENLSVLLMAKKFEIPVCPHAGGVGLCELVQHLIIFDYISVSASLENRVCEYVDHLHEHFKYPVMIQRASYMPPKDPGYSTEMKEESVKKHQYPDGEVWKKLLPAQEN
# UniProt Q14232, whole entry, looked up: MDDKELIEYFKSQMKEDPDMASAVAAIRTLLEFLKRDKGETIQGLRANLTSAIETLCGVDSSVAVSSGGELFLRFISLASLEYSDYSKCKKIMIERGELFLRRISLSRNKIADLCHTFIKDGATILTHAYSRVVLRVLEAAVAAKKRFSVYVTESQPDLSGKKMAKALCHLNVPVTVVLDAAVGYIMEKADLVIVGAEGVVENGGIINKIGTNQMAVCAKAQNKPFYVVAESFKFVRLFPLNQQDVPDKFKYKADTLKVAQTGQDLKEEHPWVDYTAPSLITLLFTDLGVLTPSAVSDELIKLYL
# UniProt Q5J8M3, whole entry, looked up: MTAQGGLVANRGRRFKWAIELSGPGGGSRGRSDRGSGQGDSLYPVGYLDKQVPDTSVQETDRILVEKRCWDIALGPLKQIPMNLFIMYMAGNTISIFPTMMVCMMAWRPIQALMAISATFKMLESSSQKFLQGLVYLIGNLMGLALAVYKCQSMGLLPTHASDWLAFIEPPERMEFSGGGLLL
# UniProt P20042, whole entry, looked up: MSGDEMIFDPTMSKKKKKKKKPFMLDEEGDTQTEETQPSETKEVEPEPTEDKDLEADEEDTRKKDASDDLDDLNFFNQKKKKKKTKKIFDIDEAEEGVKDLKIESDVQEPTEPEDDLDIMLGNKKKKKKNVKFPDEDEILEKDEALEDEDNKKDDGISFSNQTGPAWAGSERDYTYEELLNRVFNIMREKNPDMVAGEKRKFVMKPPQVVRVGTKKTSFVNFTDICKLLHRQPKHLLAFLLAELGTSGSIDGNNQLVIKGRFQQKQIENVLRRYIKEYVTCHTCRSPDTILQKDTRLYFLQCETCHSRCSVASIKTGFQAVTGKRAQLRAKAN
# UniProt Q8IZ81: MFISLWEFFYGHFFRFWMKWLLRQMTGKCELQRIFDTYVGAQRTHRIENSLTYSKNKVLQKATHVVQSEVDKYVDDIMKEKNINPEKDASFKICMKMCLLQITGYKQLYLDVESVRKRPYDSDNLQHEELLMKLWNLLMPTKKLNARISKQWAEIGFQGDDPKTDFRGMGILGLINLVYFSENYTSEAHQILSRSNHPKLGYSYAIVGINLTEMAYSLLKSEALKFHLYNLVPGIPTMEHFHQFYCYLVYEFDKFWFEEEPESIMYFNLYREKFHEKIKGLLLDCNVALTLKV
# UniProt Q9UBQ5, whole entry, looked up: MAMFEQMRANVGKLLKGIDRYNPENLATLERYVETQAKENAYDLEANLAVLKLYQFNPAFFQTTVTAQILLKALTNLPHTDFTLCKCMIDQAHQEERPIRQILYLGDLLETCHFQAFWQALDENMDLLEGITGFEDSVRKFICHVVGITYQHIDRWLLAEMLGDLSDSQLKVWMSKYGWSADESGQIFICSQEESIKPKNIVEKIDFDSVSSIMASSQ
# How the values were obtained:
# Assay in all cases: log2 fold change, soluble protein after heating vs DMSO (PISA); higher = thermal stabilisation; K562 lysate, 10 uM; active = over 0.2 and 3.5 SD of the protein, either way, in both replicates (recomputed)
# [1] = compound: CS(=O)(=O)CCNCc1ccc(-c2ccc3ncnc(Nc4ccc(OCc5cccc(F)c5)c(Cl)c4)c3c2)o1 [lapatinib]
# In short: (§1)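 Soluble protein was defined as the supernatant remaining after 21,000xg for 90 min, following pooling of heated aliquots and adjustment to 0.5% NP-40 at 4°C. Before that, crude K562 extract at 1 mg/mL protein in PBS pH 7.4 with 1 mM MgCl2 was treated with 10 μM compound for 30 min and heated for 3 min across 48°C-58°C. Quantification used TMTpro 16plex LC-MS/MS with channel sums equalised, and values are log-two fold changes in thermal stability relative to solvent controls from duplicates.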
# [2] = compound: CS(=O)(=O)N1CCN(Cc2cc3nc(-c4cccc5[nH]ncc45)nc(N4CCOCC4)c3s2)CC1 [pictilisib]
# In short: as §1
# [3] = compound: C[C@@H](Oc1cc(-c2cnn(C3CCNCC3)c2)cnc1N)c1c(Cl)ccc(F)c1Cl [crizotinib]
# In short: as §1
# [4] = compound: C[C@H](C1=CC=C(C=C1)C(=O)NC2=C3C=CNC3=NC=C2)N
# In short: as §1
# [5] = compound: C[C@H](Nc1ncnc2nc[nH]c12)c1cc2cccc(Cl)c2c(=O)n1-c1ccccc1 [duvelisib]
# In short: as §1
# [6] = compound: Cc1cc(Nc2cc(CN3CCOCC3)c3nc(C)c(Cc4ccc(Cl)cc4F)n3n2)n[nH]1 [gandotinib]
# In short: as §1
# [7] = compound: Cc1cc(Nc2cc(N3CCN(C)CC3)nc(Sc3ccc(NC(=O)C4CC4)cc3)n2)n[nH]1 [tozasertib]
# In short: as §1
# [8] = compound: Cc1ccc(-n2nc(C(C)(C)C)cc2NC(=O)Nc2ccc(OCCN3CCOCC3)c3ccccc23)cc1 [doramapimod]
# In short: as §1
# [9] = compound: Cc1ccc(NC(=O)c2ccc(CN3CC[C@H](N(C)C)C3)c(C(F)(F)F)c2)cc1Nc1nccc(-c2cncnc2)n1 [bafetinib]
# In short: as §1
# [10] = compound: Cc1cccc(CC(=O)N2CCc3c2ccc(-c2cn(C)c4ncnc(N)c24)c3F)n1
# In short: as §1
# [11] = compound: Cc1cn(-c2cc(NC(=O)c3ccc(C)c(Nc4nccc(-c5cccnc5)n4)c3)cc(C(F)(F)F)c2)cn1 [nilotinib]
# In short: as §1
# [12] = compound: Cc1nc(Nc2n[nH]c3c2CN(C(=O)N[C@H](CN(C)C)c2ccccc2)C3(C)C)c2sccc2n1
# In short: as §1
# [13] = compound: Cc1nc(Nc2ncc(C(=O)Nc3c(C)cccc3Cl)s2)cc(N2CCN(CCO)CC2)n1 [dasatinib]
# In short: as §1
# [14] = compound: Cc1ncc(-c2ccnc(Nc3ccc(S(C)(=O)=O)cc3)n2)n1C(C)C
# In short: as §1
# [15] = compound: Cn1cc(-c2ccc3c(c2)CCN3C(=O)Cc2cccc(C(F)(F)F)c2)c2c(N)ncnc21
# In short: as §1
# [16] = compound: Cn1cc(CNCC2CCN(c3ncc(C(=O)NO)cn3)CC2)c2ccccc21 [quisinostat]
# In short: as §1
# [17] = compound: Cn1cncc1[C@@](N)(c1ccc(Cl)cc1)c1ccc2c(c1)c(-c1cccc(Cl)c1)cc(=O)n2C [tipifarnib]
# In short: as §1
# [18] = compound: NC(=O)Nc1cc(-c2cccc(F)c2)sc1C(=O)N[C@H]1CCCNC1
# In short: as §1
# [19] = compound: NC(=O)c1cnc(N[C@@H]2CCCC[C@@H]2N)nc1Nc1cccc(-n2nccn2)c1
# In short: as §1
# [20] = compound: NC1(c2ccc(-c3nc4ccn5c(=O)[nH]nc5c4cc3-c3ccccc3)cc2)CCC1
# In short: as §1
Target,log2 fold change [1],log2 fold change [2],log2 fold change [3],log2 fold change [4],log2 fold change [5],log2 fold change [6],log2 fold change [7],log2 fold change [8],log2 fold change [9],log2 fold change [10],log2 fold change [11],log2 fold change [12],log2 fold change [13],log2 fold change [14],log2 fold change [15],log2 fold change [16],log2 fold change [17],log2 fold change [18],log2 fold change [19],log2 fold change [20]
EPN1 (UniProt Q9Y6I3),inactive: 0.008,inactive: 0.011,inactive: 0.039,inactive: 0.088,inactive: -0.019,inactive: -0.007,inactive: -0.025,inactive: -0.023,inactive: -0.018,inactive: -0.035,inactive: 0.008,inactive: 0.017,inactive: 0.026,inactive: 0.009,inactive: -0.002,inactive: 0.076,inactive: -0.007,inactive: -0.012,inactive: -0.012,inactive: 0.014
EPG5 (UniProt Q9HCE0),inactive: 0.025,inactive: 0.12,inactive: -0.05,inactive: 0.075,inactive: 0.054,inactive: -0.093,inactive: -0.065,inactive: -0.109,inactive: -0.054,inactive: -0.041,inactive: 0.038,inactive: -0.116,inactive: -0.038,inactive: -0.324,inactive: 0.209,inactive: 0.117,inactive: 0.062,inactive: 0.086,inactive: -0.018,inactive: 0.257
EPB41 (UniProt P11171),inactive: -0.009,inactive: -0.015,inactive: -0.007,inactive: 0.04,inactive: -0.016,inactive: -0.105,inactive: 0.035,inactive: 0.01,inactive: -0.013,inactive: -0.088,inactive: -0.01,inactive: 0.024,inactive: 0,inactive: -0.007,inactive: 0.031,inactive: 0.039,inactive: 0.011,inactive: 0.003,inactive: 0.012,inactive: 0.003
ENO2 (UniProt P09104),inactive: 0.01,inactive: 0.012,inactive: -0.009,active: -0.358,inactive: 0.04,inactive: 0.214,inactive: -0.111,inactive: -0.012,inactive: -0.014,active: 0.264,inactive: 0.006,inactive: 0.017,inactive: 0.036,inactive: 0.025,inactive: 0,inactive: -0.03,inactive: -0.021,inactive: 0.001,inactive: -0.043,inactive: 0.003
EIF2B3 (UniProt Q9NR50),inactive: -0.007,inactive: -0.021,inactive: -0.061,active: 0.234,inactive: 0.016,inactive: -0.115,inactive: -0.035,inactive: 0.012,inactive: -0.024,inactive: -0.047,inactive: 0.001,inactive: 0.001,inactive: -0.049,inactive: 0.009,inactive: -0.024,inactive: -0.036,inactive: -0.013,inactive: 0.022,inactive: -0.008,inactive: -0.009
EIF2AK4 (UniProt Q9P2K8),inactive: -0.048,inactive: -0.015,inactive: 0.018,inactive: -0.029,inactive: -0.007,inactive: 0.002,inactive: 0.065,inactive: -0.02,inactive: -0.079,inactive: 0.039,inactive: -0.022,inactive: 0,inactive: -0.021,inactive: -0.001,inactive: 0.068,inactive: -0.074,inactive: -0.007,inactive: 0.05,inactive: 0.044,inactive: -0.031
ENY2 (UniProt Q9NPA8),inactive: 0.025,inactive: -0.024,inactive: 0.031,active: 0.726,inactive: 0.034,active: -0.386,inactive: 0.019,inactive: -0.021,inactive: -0.07,active: -0.529,inactive: -0.054,inactive: -0.002,inactive: 0.045,inactive: 0.007,inactive: 0.033,inactive: -0.03,inactive: 0.085,inactive: -0.03,inactive: -0.022,inactive: -0.007
ENOSF1 (UniProt Q7L5Y1),inactive: 0,inactive: -0.019,inactive: -0.012,inactive: -0.028,inactive: -0.023,inactive: 0.005,inactive: 0.013,inactive: -0.014,inactive: -0.008,inactive: 0.078,inactive: 0.005,inactive: 0.011,inactive: 0,inactive: 0.095,inactive: 0.015,inactive: -0.003,inactive: -0.02,inactive: 0.033,inactive: 0.017,inactive: -0.014
EIF2B1 (UniProt Q14232),inactive: 0,inactive: -0.018,inactive: 0.023,inactive: 0.025,inactive: 0.011,inactive: 0.008,inactive: -0.002,inactive: -0.013,inactive: 0.038,inactive: -0.023,inactive: 0.008,inactive: -0.026,inactive: 0.05,inactive: 0.039,inactive: -0.021,inactive: 0.068,inactive: 0.019,inactive: -0.017,inactive: -0.021,inactive: 0.002
EMC4 (UniProt Q5J8M3),inactive: -0.026,inactive: 0.012,inactive: 0.001,inactive: 0.041,inactive: 0.059,inactive: -0.071,inactive: 0.069,inactive: 0.048,inactive: 0.063,inactive: 0.036,inactive: 0,inactive: 0.024,inactive: -0.023,inactive: -0.011,inactive: 0.018,inactive: -0.006,inactive: -0.05,inactive: -0.041,inactive: -0.007,inactive: -0.041
EIF2S2 (UniProt P20042),inactive: 0.004,inactive: 0.017,inactive: -0.003,inactive: 0.085,inactive: 0.024,inactive: -0.075,inactive: 0.006,inactive: -0.007,inactive: -0.002,inactive: 0,inactive: -0.012,inactive: 0.038,inactive: 0.005,inactive: 0.03,inactive: -0.012,inactive: 0.013,inactive: 0.006,inactive: -0.03,inactive: 0.008,inactive: -0.007
EIF4A1 (UniProt P60842),inactive: -0.027,inactive: 0.001,inactive: -0.058,inactive: -0.036,inactive: 0.003,inactive: -0.008,inactive: -0.036,inactive: -0.006,inactive: -0.012,inactive: 0.031,inactive: 0,inactive: -0.013,inactive: -0.006,inactive: 0.008,inactive: -0.003,inactive: -0.06,inactive: 0.009,inactive: 0.028,inactive: -0.004,inactive: -0.014
EIF2AK2 (UniProt P19525),inactive: -0.003,inactive: 0.03,inactive: 0.12,inactive: -0.061,inactive: -0.036,inactive: -0.022,inactive: -0.009,inactive: 0.011,inactive: -0.036,inactive: 0.022,inactive: -0.014,inactive: 0.043,inactive: 0.122,inactive: 0.01,inactive: 0.056,inactive: -0.087,inactive: -0.032,inactive: 0.045,inactive: -0.013,inactive: -0.054
ERAP1 isoform 2 (UniProt Q9NZ08),inactive: -0.009,inactive: -0.005,inactive: 0.002,inactive: 0.01,inactive: -0.007,inactive: -0.001,inactive: -0.012,inactive: -0.011,inactive: -0.003,inactive: 0.004,inactive: 0.003,inactive: -0.013,inactive: 0.055,inactive: 0.012,inactive: 0.009,inactive: 0.011,inactive: -0.01,inactive: 0.001,inactive: -0.002,inactive: -0.022
ELMOD2 (UniProt Q8IZ81),inactive: -0.01,inactive: -0.029,inactive: 0.011,inactive: 0.068,inactive: 0.001,inactive: -0.05,inactive: 0.029,inactive: 0.001,inactive: -0.002,inactive: -0.022,inactive: -0.056,inactive: -0.025,inactive: -0.054,inactive: -0.072,inactive: 0.001,inactive: 0.022,inactive: -0.006,inactive: -0.013,inactive: 0.018,inactive: 0.02
EIF3K (UniProt Q9UBQ5),inactive: -0.013,inactive: 0.018,inactive: -0.005,inactive: 0.009,inactive: 0.037,inactive: -0.049,inactive: 0.015,inactive: -0.046,inactive: -0.049,inactive: -0.021,inactive: 0.009,inactive: -0.034,inactive: -0.026,inactive: 0.024,inactive: -0.003,inactive: -0.003,inactive: 0.003,inactive: 0.032,inactive: -0.009,inactive: 0.004

# Two entries picked at random from those above, as already listed:
Target,log2 fold change [1],log2 fold change [2],log2 fold change [3],log2 fold change [4],log2 fold change [5],log2 fold change [6],log2 fold change [7],log2 fold change [8],log2 fold change [9],log2 fold change [10],log2 fold change [11],log2 fold change [12],log2 fold change [13],log2 fold change [14],log2 fold change [15],log2 fold change [16],log2 fold change [17],log2 fold change [18],log2 fold change [19],log2 fold change [20]
EPB41 (UniProt P11171),inactive: -0.009,inactive: -0.015,inactive: -0.007,inactive: 0.04,inactive: -0.016,inactive: -0.105,inactive: 0.035,inactive: 0.01,inactive: -0.013,inactive: -0.088,inactive: -0.01,inactive: 0.024,inactive: 0,inactive: -0.007,inactive: 0.031,inactive: 0.039,inactive: 0.011,inactive: 0.003,inactive: 0.012,inactive: 0.003
EMC4 (UniProt Q5J8M3),inactive: -0.026,inactive: 0.012,inactive: 0.001,inactive: 0.041,inactive: 0.059,inactive: -0.071,inactive: 0.069,inactive: 0.048,inactive: 0.063,inactive: 0.036,inactive: 0,inactive: 0.024,inactive: -0.023,inactive: -0.011,inactive: 0.018,inactive: -0.006,inactive: -0.05,inactive: -0.041,inactive: -0.007,inactive: -0.041
